Among the data in patent US20050187156A1 (Stanford University, published 2005) are binding values, retold here.

Experiment [1] deals with T1, GST-εRACK (human εRACK expressed as a GST fusion protein) (human) (UniProt P35606).
T1 sequence (looked up): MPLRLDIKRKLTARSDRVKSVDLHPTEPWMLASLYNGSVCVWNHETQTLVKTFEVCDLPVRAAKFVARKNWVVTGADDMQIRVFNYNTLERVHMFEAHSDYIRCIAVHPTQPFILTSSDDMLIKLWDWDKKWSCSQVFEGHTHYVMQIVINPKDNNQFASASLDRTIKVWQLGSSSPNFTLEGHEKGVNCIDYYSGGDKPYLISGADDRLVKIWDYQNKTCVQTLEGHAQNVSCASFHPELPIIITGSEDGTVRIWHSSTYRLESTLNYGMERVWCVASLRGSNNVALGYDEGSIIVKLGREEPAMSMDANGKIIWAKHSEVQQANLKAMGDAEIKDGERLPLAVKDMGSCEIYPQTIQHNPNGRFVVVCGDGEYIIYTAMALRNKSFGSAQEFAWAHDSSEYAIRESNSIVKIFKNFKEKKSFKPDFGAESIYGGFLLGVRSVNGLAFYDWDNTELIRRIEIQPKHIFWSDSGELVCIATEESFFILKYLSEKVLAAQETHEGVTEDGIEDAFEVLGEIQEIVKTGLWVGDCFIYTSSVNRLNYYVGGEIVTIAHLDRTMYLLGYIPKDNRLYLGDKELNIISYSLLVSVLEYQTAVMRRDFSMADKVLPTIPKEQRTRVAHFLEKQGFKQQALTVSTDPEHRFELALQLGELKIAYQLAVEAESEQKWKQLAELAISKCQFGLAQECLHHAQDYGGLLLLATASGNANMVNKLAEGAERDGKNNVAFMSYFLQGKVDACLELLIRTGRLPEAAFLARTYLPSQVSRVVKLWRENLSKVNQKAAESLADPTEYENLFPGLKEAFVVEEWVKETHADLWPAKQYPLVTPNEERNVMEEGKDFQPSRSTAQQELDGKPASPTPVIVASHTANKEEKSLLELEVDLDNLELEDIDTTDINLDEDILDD
Nature of the experiment: pull-down on immobilized GST-εRACK with and without phospholipid activators, Western blot.

Experiment [2] concerns the target T1, GST-εRACK (human εRACK expressed as a GST fusion protein) (human). In words: pull-down on immobilized GST-εRACK, Western blot (discussion of Example 5). Background: A western blot detects proteins with antibodies after separation by electrophoresis.

Results are given in words; binding and its absence hold for the method and conditions named. For part of these data: Binding seen in cells or lysates may run through a third protein. Some entries that bind do so weakly or less than the wild type. Sequences can lack the tags named with a protein.

In the case of “εPKC Wt (human εPKC expressed in insect cells) (from UniProt Q02156 1-737) (enzyme)”, in experiment [1], the binding entry is “binds”.

B1: D(86)A εPKC mutant (enzyme, human, UniProt Q02156 1-737, looked up)
chain: MVVFNGLLKIKICEAVSLKPTAWSLRHAVGPRPATFLLDPYIALNVDDSRIGQTATKQKTNSPAWHDEFVTDVCNGRKIELAVFHAAPIGYDDFVANCTIQFEELLQNGSRHFEDWIDLEPEGRVYVIIDLSGSSGEAPKDNEERVFRERMRPRKRQGAVRRRVHQVNGHKFMATYLRQPTYCSHCRDFIWGVIGKQGYQCQVCTCVVHKRCHELIITKCAGLKKQETPDQVGSQRFSVNMPHKFGIHNYKVPTFCDHCGSLLWGLLRQGLQCKVCKMNVHRRCETNVAPNCGVDARGIAKVLADLGVTPDKITNSGQRRKKLIAGAESPQPASGGSPSEEDRSKSAPTSPCDQEIKELENNIRKALSFDNRGEEHRAASSPDGQLMSPGENGEVRQGQAKRLGLDEFNFIKVLGKGSFGKVMLAELKGKDEVYAVKVLKKDVILQDDDVDCTMTEKRILALARKHPYLTQLYCCFQTKDRLFFVMEYVNGGDLMFQIQRSRKFDEPRSRFYAAEVTSALMFLHQHGVIYRDLKLDNILLDAEGHCKLADFGMCKEGILNGVTTTTFCGTPDYIAPEILQELEYGPSVDWWALGVLMYEMMAGQPPFEADNEDDLFESILHDDVLYPVWLSKEAVSILKAFMTKNPHKRLGCVASQNGEDAIKQHPFFKEIDWVLLEQKKIKPPFKPRIKTKRDVNNFDQDFTREEPVLTLVDEAIVKQINQEEFKGFSYFGEDLMP
notes: Used as the soluble fraction of a Hi5 insect cell lysate containing 100 ng εPKC protein; also called D(86)A ΨεRACK mutant; A mutant
As for B1, the binding result in experiment [2] and in experiment [1] was “binds” throughout.
